Assay results reported in the supplement of paper PMC10849652.
The list shows a part of the results.

Sequences of proteins named here, by UniProt entry; tags and fusion partners are left off. A change or cut given only in a name is not applied to a line headed by its entry.
UniProt Q9NVP2, whole entry, looked up: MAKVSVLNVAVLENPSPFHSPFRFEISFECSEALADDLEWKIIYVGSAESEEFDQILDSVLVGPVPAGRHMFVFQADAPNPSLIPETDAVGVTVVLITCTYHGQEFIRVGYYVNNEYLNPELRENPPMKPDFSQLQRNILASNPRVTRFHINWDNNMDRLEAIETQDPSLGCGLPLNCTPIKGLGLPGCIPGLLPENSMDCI
UniProt Q96DT6: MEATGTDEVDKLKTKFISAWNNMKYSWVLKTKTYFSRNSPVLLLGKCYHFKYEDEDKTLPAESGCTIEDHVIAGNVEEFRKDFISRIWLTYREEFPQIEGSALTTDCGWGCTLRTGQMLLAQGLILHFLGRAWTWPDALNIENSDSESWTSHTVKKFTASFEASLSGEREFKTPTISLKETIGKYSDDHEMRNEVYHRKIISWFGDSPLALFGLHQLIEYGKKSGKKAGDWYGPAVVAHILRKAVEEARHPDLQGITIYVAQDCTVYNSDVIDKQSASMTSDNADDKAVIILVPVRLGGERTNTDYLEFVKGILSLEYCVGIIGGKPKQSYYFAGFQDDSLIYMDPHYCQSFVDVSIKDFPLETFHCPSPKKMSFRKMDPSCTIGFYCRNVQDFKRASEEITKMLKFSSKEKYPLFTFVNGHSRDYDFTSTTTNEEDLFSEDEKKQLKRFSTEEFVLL
UniProt P48047: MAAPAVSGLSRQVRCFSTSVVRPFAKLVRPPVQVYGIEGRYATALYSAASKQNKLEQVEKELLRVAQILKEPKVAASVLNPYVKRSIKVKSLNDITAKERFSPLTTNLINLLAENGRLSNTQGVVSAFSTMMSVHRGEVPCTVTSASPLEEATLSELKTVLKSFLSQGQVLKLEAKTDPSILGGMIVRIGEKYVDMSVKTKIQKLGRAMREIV
UniProt Q9Y679: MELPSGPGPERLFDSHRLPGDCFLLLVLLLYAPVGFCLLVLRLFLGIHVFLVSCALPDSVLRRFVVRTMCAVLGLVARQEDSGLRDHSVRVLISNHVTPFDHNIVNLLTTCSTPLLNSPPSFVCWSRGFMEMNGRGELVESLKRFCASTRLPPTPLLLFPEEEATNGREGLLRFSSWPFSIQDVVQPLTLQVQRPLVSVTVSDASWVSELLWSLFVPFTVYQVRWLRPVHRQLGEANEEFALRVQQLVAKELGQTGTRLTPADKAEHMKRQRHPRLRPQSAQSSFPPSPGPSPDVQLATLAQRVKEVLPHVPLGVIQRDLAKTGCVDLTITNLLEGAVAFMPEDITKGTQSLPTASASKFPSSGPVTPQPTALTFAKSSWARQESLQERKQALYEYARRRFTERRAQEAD
UniProt Q9Y487, whole entry, looked up: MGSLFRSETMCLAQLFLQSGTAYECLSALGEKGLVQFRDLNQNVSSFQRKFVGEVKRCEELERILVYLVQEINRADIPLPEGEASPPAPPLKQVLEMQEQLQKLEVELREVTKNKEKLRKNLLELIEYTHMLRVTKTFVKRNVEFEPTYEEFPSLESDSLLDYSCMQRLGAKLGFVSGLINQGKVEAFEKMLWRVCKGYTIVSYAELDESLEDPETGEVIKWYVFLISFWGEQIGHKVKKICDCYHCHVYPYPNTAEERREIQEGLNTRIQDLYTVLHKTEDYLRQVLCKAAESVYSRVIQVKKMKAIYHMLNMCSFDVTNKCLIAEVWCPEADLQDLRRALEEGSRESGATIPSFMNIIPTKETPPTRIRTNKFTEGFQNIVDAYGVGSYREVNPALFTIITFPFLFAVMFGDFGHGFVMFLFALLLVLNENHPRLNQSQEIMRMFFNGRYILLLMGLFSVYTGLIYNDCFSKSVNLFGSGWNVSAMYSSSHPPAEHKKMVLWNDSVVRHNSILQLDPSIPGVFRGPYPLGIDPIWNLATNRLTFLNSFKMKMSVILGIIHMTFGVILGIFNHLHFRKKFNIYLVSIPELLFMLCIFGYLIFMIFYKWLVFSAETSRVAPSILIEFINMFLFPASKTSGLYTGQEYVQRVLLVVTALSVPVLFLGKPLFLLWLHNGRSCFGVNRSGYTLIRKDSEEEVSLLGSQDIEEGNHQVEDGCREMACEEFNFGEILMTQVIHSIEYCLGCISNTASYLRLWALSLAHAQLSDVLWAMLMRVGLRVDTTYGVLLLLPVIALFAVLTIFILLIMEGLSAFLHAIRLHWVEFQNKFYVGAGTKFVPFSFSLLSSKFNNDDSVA
UniProt P04424, whole entry, looked up: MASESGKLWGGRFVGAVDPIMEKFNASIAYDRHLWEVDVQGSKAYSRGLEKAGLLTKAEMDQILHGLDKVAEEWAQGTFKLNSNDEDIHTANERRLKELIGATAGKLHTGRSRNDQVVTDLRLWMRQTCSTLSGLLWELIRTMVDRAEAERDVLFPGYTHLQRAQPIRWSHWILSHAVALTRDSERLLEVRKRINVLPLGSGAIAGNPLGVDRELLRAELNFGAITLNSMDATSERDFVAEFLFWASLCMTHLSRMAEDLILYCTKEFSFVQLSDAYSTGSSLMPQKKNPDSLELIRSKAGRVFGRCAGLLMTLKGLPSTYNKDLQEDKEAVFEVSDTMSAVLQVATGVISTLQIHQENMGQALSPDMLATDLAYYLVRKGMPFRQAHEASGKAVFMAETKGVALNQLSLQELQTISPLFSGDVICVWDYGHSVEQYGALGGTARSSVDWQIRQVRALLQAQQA
UniProt O75348, whole entry, looked up: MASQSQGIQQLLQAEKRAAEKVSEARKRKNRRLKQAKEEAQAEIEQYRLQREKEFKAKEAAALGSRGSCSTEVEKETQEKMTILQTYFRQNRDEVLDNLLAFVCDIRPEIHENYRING
UniProt P15313, whole entry, looked up: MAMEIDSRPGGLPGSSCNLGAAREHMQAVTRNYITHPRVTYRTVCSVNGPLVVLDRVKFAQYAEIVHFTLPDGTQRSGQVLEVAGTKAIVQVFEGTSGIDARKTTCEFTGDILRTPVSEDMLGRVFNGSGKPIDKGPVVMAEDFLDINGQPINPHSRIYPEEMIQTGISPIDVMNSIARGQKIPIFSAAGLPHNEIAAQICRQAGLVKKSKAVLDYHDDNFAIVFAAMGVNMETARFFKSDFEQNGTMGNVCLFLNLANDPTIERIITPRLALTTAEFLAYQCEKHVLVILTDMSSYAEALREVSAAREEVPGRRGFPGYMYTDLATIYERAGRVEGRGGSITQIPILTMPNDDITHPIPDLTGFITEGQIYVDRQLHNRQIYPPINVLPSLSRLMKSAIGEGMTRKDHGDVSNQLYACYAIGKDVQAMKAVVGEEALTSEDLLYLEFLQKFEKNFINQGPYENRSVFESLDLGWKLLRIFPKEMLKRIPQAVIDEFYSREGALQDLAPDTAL
UniProt Q8NHH9: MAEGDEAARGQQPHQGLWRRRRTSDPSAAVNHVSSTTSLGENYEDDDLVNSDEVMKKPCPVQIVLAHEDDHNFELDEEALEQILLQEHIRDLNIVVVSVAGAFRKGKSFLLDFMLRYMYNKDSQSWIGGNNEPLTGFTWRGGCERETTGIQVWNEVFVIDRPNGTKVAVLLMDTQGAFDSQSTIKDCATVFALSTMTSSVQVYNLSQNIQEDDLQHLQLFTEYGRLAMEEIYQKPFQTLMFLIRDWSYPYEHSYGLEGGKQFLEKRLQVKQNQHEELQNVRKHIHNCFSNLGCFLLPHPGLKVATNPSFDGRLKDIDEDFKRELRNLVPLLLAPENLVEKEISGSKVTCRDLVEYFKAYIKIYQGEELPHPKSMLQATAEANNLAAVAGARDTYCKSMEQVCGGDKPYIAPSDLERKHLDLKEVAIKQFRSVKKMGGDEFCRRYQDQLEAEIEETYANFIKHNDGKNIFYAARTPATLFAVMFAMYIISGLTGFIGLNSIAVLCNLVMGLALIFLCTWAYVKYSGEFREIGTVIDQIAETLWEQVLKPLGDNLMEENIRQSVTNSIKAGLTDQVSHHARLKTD
UniProt Q9BSB4: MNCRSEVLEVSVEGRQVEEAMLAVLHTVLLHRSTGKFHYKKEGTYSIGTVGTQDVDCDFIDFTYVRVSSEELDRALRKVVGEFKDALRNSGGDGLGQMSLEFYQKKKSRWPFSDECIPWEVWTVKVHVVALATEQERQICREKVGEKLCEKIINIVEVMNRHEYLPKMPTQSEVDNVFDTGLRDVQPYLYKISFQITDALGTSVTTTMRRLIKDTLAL
UniProt P25311: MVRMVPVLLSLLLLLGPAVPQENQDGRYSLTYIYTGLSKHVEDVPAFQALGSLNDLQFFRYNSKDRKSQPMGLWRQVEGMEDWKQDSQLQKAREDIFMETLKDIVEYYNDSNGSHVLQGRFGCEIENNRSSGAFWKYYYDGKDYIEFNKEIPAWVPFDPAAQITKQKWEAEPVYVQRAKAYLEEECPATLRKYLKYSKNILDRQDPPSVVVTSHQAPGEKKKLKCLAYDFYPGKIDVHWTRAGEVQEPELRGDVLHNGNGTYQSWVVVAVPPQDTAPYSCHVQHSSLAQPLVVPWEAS
UniProt O94817, whole entry, looked up: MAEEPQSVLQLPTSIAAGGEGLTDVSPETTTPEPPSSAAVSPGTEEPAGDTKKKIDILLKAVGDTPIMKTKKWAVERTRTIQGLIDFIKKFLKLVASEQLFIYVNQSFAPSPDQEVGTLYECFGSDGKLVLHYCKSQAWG
UniProt Q8NBF6: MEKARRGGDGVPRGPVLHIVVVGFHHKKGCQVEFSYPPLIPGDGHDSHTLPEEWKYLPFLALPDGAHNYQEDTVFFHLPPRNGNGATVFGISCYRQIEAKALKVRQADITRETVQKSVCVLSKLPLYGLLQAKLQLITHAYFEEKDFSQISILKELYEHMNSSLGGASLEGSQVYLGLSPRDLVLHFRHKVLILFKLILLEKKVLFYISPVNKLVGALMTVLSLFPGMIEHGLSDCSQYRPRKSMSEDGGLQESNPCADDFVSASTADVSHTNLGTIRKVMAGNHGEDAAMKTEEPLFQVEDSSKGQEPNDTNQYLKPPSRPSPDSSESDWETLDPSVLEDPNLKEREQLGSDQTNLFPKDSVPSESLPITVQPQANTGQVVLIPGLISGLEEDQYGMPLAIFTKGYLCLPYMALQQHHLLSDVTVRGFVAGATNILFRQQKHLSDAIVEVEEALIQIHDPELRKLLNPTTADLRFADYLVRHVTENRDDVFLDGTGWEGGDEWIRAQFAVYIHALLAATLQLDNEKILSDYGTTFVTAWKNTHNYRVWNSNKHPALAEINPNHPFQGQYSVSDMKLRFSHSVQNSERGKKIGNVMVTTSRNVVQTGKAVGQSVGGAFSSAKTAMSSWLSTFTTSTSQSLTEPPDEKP
UniProt Q12797: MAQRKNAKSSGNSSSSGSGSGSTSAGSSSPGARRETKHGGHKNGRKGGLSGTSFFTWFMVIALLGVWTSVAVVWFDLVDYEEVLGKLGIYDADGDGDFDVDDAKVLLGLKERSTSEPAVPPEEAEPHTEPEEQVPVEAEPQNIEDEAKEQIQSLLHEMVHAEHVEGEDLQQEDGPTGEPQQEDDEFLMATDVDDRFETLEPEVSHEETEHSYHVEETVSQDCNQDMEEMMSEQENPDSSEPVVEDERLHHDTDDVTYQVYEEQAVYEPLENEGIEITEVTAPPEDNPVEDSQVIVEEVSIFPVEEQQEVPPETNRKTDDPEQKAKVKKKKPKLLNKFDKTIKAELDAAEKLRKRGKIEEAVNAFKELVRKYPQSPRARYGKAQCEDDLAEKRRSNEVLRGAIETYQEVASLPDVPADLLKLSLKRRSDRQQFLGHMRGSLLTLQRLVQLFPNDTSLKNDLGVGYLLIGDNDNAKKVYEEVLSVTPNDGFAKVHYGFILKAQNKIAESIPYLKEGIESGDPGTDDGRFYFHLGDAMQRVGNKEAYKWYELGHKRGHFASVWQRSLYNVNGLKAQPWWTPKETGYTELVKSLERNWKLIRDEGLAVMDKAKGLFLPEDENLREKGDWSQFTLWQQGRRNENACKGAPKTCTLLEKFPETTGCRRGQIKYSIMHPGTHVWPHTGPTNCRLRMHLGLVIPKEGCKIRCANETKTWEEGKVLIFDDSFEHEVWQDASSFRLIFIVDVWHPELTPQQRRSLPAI
UniProt Q7L266: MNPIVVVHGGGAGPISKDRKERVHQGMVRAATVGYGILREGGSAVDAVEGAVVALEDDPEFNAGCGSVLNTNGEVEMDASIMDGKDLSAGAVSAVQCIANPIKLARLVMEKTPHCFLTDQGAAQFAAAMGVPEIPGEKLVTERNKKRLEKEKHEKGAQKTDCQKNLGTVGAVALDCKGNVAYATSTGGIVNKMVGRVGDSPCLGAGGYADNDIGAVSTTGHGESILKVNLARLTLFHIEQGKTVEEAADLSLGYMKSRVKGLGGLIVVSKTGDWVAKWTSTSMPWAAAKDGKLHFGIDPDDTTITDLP

Columns and labels:
Assay in all cases: log2 fold change, soluble protein after heating vs DMSO (PISA); higher = thermal stabilisation; K562 lysate, 10 uM; active = over 0.2 and 3.5 SD of the protein, either way, in both replicates (recomputed)
erlotinib = compound: C#Cc1cccc(Nc2ncnc3cc(OCCOC)c(OCCOC)cc23)c1 [erlotinib]
Method in brief: (§1)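 K562 pellets were dounce-homogenised in PBS pH 7.4 containing 1 mM MgCl2, and the crude extract, at 1 mg/mL protein, was exposed to 10 μM compound for 30 min. Aliquots were heated for 3 min across 48°C-58°C, pooled, brought to 0.5% NP-40 at 4°C and spun at 21,000xg for 90 min, with the supernatant taken as soluble protein. TMTpro 16plex LC-MS/MS with equalised channel sums quantified that protein. Values are log-two fold changes in thermal stability relative to solvent controls, taken from duplicates.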

[1] = compound: C/C(=N\NC(=O)C1=CC(=CC=C1)S(=O)(=O)N2CCOCC2)/C3=C(C=CC(=C3)Cl)O
Method in brief: as §1

[2] = compound: C1=CC(=CC=C1C2=NC3=C(N2)C=C(C=C3)C(=O)N)OC4=CC=C(C=C4)Cl
Method in brief: as §1

[3] = compound: C1=CC2=C(C=CC(=C2)/C=C\3/C(=O)NC(=NCC4=CC=CS4)S3)N=C1
Method in brief: as §1

[4] = compound: C1=CC2=NC=CN=C2C=C1/C=C/3\C(=O)NC(=O)S3
Method in brief: as §1

[5] = compound: C1=CC=C(C=C1)C2=NC(=C(N2)C3=CC=NC=C3)C4=CC(=C(C=C4)Cl)O
Method in brief: as §1

[6] = compound: C1=CC=C2C(=C1)C3=NNC4=CC=CC(=C43)C2=O
Method in brief: as §1

[7] = compound: C1CCN(C1)C(=O)NC2=CC=CC(=C2)NC3=NC=C(C(=N3)NCCC4=CN=CN4)Br
Method in brief: as §1

[8] = compound: C1CN(CCC1(CC2=CC=C(C=C2)Cl)N)C3=NC=NC4=C3C=CN4
Method in brief: as §1

IRAK-1-4 Inhibitor I = compound: C1COCCN1CCN2C3=CC=CC=C3N=C2NC(=O)C4=CC(=CC=C4)[N+](=O)[O-] [IRAK-1-4 Inhibitor I]
Method in brief: as §1

ibrutinib = compound: C=CC(=O)N1CCC[C@@H](n2nc(-c3ccc(Oc4ccccc4)cc3)c3c(N)ncnc32)C1 [ibrutinib]
Method in brief: as §1

[9] = compound: CC(=O)c1cnc2ccc(-c3cc(Cl)c(O)c(Cl)c3)nc2c1N[C@H]1CC[C@H](CN(C)C)CC1
Method in brief: as §1

ralimetinib = compound: CC(C)(C)Cn1c(N)nc2ccc(-c3[nH]c(C(C)(C)C)nc3-c3ccc(F)cc3)nc21 [ralimetinib]
Method in brief: as §1

[10] = compound: CC(C)(O)CC(=O)NCCn1ccc2ncnc(Nc3ccc(Oc4cccc(C(F)(F)F)c4)c(Cl)c3)c21
Method in brief: as §1

[11] = compound: CC(C)C1=C2N=C(C=C(N2N=C1)NCC3=CC=CC=C3)NCCCCCCN
Method in brief: as §1

[12] = compound: CC1=C(C(CC(=O)N1)C2=CC=C(C=C2)C(F)(F)F)C(=O)NC3=C(C=C4C(=C3)C=NN4)F
Method in brief: as §1

[13] = compound: CC1=C(C2=C(C=C1)C(=O)C3=CC=CC=C3N2CCCN)C
Method in brief: as §1

[14] = compound: CC1=C(C=C(C=C1)NC(=O)C2=CC(=CC=C2)C(C)(C)C#N)NC3=CC4=C(C=C3)N=CN(C4=O)C
Method in brief: as §1

[15] = compound: CC1=C(C=C(C=C1)NC(=O)C2=CC(=CC=C2)N(C)C)NC(=O)C3=CC=C(C=C3)O
Method in brief: as §1

[16] = compound: CC1=CC=C(C=C1)SC2=C3C=C(SC3=CN=C2)C(=O)N
Method in brief: as §1

Measured: log2 fold change

ASF1B (UniProt Q9NVP2)
inactive: erlotinib -0.003 | [1] -0.005 | [2] 0.019 | [3] 0.091 | [4] -0.028 | [5] 0.001 | [6] -0.002 | [7] -0.047 | [8] 0.033 | IRAK-1-4 Inhibitor I 0.062 | ibrutinib 0.107 | [9] 0.022 | ralimetinib -0.019 | [10] 0.032 | [11] -0.007 | [12] 0.047 | [13] -0.025 | [14] 0.006 | [15] 0.024 | [16] -0.03

ATG4C (UniProt Q96DT6)
inactive: erlotinib -0.055 | [1] 0.022 | [2] -0.014 | [3] 0.05 | [4] -0.014 | [5] 0.021 | [6] -0.073 | [7] -0.104 | [8] -0.002 | IRAK-1-4 Inhibitor I 0.012 | ibrutinib -0.008 | [9] -0.035 | ralimetinib -0.04 | [10] 0.038 | [11] -0.004 | [12] 0.001 | [13] -0.025 | [14] 0.012 | [15] -0.02 | [16] -0.022

ATP5PO (UniProt P48047)
inactive: erlotinib -0.015 | [1] 0.045 | [2] -0.019 | [3] -0.006 | [4] -0.02 | [5] 0.015 | [6] 0.029 | [7] 0.016 | [8] -0.022 | IRAK-1-4 Inhibitor I -0.014 | ibrutinib -0.01 | [9] 0.002 | ralimetinib -0.037 | [10] 0.002 | [11] -0.009 | [12] -0.006 | [13] -0.017 | [14] -0.003 | [15] -0.004 | [16] 0.007

ATP6AP1 (UniProt Q15904)
inactive: erlotinib -0.01 | [1] -0.036 | [2] -0.017 | [3] 0.001 | [4] 0.037 | [5] -0.048 | [6] 0.074 | [7] -0.045 | [8] 0 | IRAK-1-4 Inhibitor I -0.041 | ibrutinib -0.014 | [9] -0.003 | ralimetinib 0.02 | [10] -0.048 | [11] 0.003 | [12] 0.042 | [13] 0.014 | [14] -0.034 | [15] 0.05 | [16] -0.02

AUP1 (UniProt Q9Y679)
inactive: erlotinib 0.122 | [1] 0.048 | [2] -0.038 | [3] 0.027 | [4] -0.01 | [5] -0.041 | [6] 0.056 | [7] 0.027 | [8] 0.003 | IRAK-1-4 Inhibitor I 0.012 | ibrutinib -0.014 | [9] 0.073 | ralimetinib -0.031 | [10] 0.032 | [11] -0.045 | [12] 0.004 | [13] -0.016 | [14] -0.041 | [15] -0.015 | [16] -0.008

ATP6V0A2 (UniProt Q9Y487)
inactive: erlotinib 0.026 | [1] 0.027 | [2] 0.044 | [3] -0.006 | [4] 0.035 | [5] 0.004 | [6] -0.024 | [7] -0.012 | [8] 0 | IRAK-1-4 Inhibitor I 0.042 | ibrutinib 0.016 | [9] -0.017 | ralimetinib 0 | [10] -0.073 | [11] -0.077 | [12] 0.007 | [13] -0.014 | [14] 0.041 | [15] -0.032 | [16] 0.012

Taken from the results shown (two entries):
ATG4C (UniProt Q96DT6)
inactive: erlotinib -0.055 | [1] 0.022 | [2] -0.014 | [3] 0.05 | [4] -0.014 | [5] 0.021 | [6] -0.073 | [7] -0.104 | [8] -0.002 | IRAK-1-4 Inhibitor I 0.012 | ibrutinib -0.008 | [9] -0.035 | ralimetinib -0.04 | [10] 0.038 | [11] -0.004 | [12] 0.001 | [13] -0.025 | [14] 0.012 | [15] -0.02 | [16] -0.022

ATP5PO (UniProt P48047)
inactive: erlotinib -0.015 | [1] 0.045 | [2] -0.019 | [3] -0.006 | [4] -0.02 | [5] 0.015 | [6] 0.029 | [7] 0.016 | [8] -0.022 | IRAK-1-4 Inhibitor I -0.014 | ibrutinib -0.01 | [9] 0.002 | ralimetinib -0.037 | [10] 0.002 | [11] -0.009 | [12] -0.006 | [13] -0.017 | [14] -0.003 | [15] -0.004 | [16] 0.007

Further records follow.

ASL (UniProt P04424)
inactive: erlotinib 0.006 | [1] 0.048 | [2] 0.017 | [3] -0.004 | [4] -0.026 | [5] 0.008 | [6] 0.012 | [7] -0.008 | [8] -0.009 | IRAK-1-4 Inhibitor I 0.011 | ibrutinib -0.003 | [9] 0 | ralimetinib 0.025 | [10] 0.021 | [11] -0.003 | [12] -0.003 | [13] -0.014 | [14] 0.017 | [15] -0.008 | [16] 0.002

ATP6V1G1 (UniProt O75348)
inactive: erlotinib -0.018 | [1] 0.01 | [2] 0.046 | [3] -0.025 | [4] -0.018 | [5] -0.011 | [6] 0.026 | [7] 0.022 | [8] -0.017 | IRAK-1-4 Inhibitor I -0.014 | ibrutinib -0.002 | [9] 0.013 | ralimetinib 0.008 | [10] -0.041 | [11] 0.012 | [12] -0.015 | [13] -0.018 | [14] 0.001 | [15] -0.063 | [16] -0.027

ATP6V1B1 (UniProt P15313)
inactive: erlotinib -0.044 | [1] 0.014 | [2] 0.027 | [3] -0.036 | [4] 0.013 | [5] -0.02 | [6] 0.006 | [7] -0.033 | [8] 0.001 | IRAK-1-4 Inhibitor I 0.019 | ibrutinib -0.001 | [9] 0 | ralimetinib 0.037 | [10] -0.025 | [11] -0.013 | [12] 0.024 | [13] -0.011 | [14] 0.005 | [15] 0.031 | [16] -0.015

ATL2 (UniProt Q8NHH9)
inactive: erlotinib -0.097 | [1] -0.007 | [2] 0.053 | [3] -0.028 | [4] 0.022 | [5] -0.051 | [6] 0.013 | [7] -0.018 | [8] -0.049 | IRAK-1-4 Inhibitor I 0.03 | ibrutinib 0.004 | [9] -0.021 | ralimetinib 0.009 | [10] -0.051 | [11] -0.116 | [12] -0.038 | [13] 0.01 | [14] -0.011 | [15] 0.045 | [16] -0.027

ATG101 (UniProt Q9BSB4)
inactive: erlotinib -0.031 | [1] 0.009 | [2] 0.01 | [3] 0.026 | [4] 0 | [5] 0.024 | [6] 0.006 | [7] 0.037 | [8] -0.018 | IRAK-1-4 Inhibitor I -0.024 | ibrutinib 0.026 | [9] 0 | ralimetinib 0.036 | [10] -0.019 | [11] 0.012 | [12] 0.048 | [13] -0.006 | [14] -0.02 | [15] 0.028 | [16] 0.025

AZGP1 (UniProt P25311)
inactive: erlotinib -0.117 | [1] 0.29 | [2] -0.304 | [3] -0.24 | [4] 0.308 | [5] 0.282 | [6] -0.179 | [7] 0.211 | [8] -0.26 | IRAK-1-4 Inhibitor I -0.484 | ibrutinib -0.09 | [9] -0.257 | ralimetinib -0.311 | [10] 0.512 | [11] 0.409 | [12] 0.763 | [13] 0.284 | [14] 0.101 | [15] 0.042 | [16] -0.318

ATG12 (UniProt O94817)
inactive: erlotinib 0.01 | [1] 0.086 | [2] -0.049 | [3] 0.019 | [4] 0.064 | [5] 0 | [6] 0.02 | [7] -0.004 | [8] -0.024 | IRAK-1-4 Inhibitor I 0.035 | ibrutinib 0.003 | [9] 0.041 | ralimetinib -0.026 | [10] -0.026 | [11] 0.008 | [12] -0.024 | [13] -0.093 | [14] 0.033 | [15] -0.035 | [16] 0.039

AVL9 (UniProt Q8NBF6)
inactive: erlotinib -0.012 | [1] 0.004 | [2] 0.006 | [3] -0.013 | [4] -0.011 | [5] -0.014 | [6] 0.02 | [7] -0.045 | [8] 0.001 | IRAK-1-4 Inhibitor I 0.003 | ibrutinib -0.011 | [9] -0.03 | ralimetinib 0.059 | [10] 0.004 | [11] -0.01 | [12] 0.031 | [13] -0.011 | [14] 0.005 | [15] 0.002 | [16] -0.007

ASPH (UniProt Q12797)
inactive: erlotinib 0.003 | [1] -0.028 | [2] -0.013 | [3] 0.075 | [4] -0.011 | [5] 0.006 | [6] -0.022 | [7] -0.011 | [8] 0.01 | IRAK-1-4 Inhibitor I -0.016 | ibrutinib 0.015 | [9] -0.004 | ralimetinib -0.006 | [10] -0.001 | [11] -0.028 | [12] 0.052 | [13] 0.076 | [14] -0.025 | [15] 0.025 | [16] 0

ASRGL1 (UniProt Q7L266)
inactive: erlotinib -0.032 | [1] 0.021 | [2] 0.028 | [3] -0.051 | [4] -0.051 | [5] -0.008 | [6] 0.001 | [7] 0.022 | [8] 0.025 | IRAK-1-4 Inhibitor I 0.035 | ibrutinib 0.065 | [9] 0.014 | ralimetinib 0.057 | [10] -0.009 | [11] 0.007 | [12] 0.018 | [13] 0.011 | [14] 0.011 | [15] -0.04 | [16] 0.004
